These results are taken from paper PMC7573076.

The chains behind the UniProt entries cited, without tags or fusion partners.
UniProt P08106: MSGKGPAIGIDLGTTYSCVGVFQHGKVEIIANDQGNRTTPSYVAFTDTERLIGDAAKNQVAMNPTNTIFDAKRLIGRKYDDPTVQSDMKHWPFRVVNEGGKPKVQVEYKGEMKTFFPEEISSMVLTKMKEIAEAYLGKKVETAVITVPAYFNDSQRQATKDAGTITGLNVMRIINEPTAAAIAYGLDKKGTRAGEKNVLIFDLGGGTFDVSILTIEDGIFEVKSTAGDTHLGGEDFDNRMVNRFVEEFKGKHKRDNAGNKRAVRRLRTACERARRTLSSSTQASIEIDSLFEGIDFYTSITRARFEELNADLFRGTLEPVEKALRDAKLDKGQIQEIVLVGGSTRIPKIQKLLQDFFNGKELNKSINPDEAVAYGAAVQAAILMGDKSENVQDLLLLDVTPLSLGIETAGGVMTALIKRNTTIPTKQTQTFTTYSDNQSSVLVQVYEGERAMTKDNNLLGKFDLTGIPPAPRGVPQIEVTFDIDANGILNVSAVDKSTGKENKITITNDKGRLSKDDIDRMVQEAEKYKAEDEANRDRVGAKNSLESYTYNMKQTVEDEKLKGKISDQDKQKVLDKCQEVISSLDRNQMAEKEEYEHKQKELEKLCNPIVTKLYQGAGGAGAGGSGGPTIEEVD
UniProt O73885: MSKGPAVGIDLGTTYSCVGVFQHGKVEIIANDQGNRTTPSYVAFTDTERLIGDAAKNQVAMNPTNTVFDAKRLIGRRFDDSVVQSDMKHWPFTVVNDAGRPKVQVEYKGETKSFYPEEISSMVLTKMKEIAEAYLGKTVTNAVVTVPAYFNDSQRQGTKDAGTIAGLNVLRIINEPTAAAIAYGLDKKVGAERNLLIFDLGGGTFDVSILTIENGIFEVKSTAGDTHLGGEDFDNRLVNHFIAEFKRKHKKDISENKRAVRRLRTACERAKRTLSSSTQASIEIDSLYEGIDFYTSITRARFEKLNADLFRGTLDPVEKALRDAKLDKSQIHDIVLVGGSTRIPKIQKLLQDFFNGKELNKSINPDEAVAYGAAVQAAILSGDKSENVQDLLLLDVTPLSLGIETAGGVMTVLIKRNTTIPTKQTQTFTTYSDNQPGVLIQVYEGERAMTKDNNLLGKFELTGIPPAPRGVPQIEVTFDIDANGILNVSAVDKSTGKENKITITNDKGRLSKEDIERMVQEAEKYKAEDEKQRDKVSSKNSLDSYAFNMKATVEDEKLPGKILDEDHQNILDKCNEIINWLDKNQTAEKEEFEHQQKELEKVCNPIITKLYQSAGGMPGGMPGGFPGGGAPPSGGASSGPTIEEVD

No constants are given. Whether binding was seen depends on the method and setting. Binding seen in cells or lysates may run through a third protein. Some binding calls cover weakened binding; strength is not graded here. For part of these data: Tags and fused reporters may be left off the sequences shown.

The target in one test is T1, HA-chMDA5-N (chicken) (UniProt D9N195).
T1 sequence: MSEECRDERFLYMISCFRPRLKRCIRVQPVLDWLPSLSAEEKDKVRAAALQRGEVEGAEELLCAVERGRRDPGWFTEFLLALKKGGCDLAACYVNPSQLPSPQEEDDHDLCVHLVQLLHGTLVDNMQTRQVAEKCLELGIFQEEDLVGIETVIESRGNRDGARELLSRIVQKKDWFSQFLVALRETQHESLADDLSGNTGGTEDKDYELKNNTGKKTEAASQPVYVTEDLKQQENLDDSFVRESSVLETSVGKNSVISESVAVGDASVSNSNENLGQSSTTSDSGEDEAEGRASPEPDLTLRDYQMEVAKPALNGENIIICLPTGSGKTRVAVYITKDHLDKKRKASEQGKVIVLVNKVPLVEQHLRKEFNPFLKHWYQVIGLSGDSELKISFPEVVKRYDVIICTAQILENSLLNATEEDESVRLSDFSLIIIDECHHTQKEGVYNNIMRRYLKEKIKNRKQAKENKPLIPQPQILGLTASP
The test is described as follows: co-IP; tagged constructs co-transfected into DF1 cells, RIPA lysate 24 h later, anti-Flag or anti-HA magnetic beads at 4°C, immunoblot.

The target of test [1] is T2, chicken MDA5 (chMDA5) (chicken (endogenous in DF1)) (UniProt D9N195).
T2 sequence: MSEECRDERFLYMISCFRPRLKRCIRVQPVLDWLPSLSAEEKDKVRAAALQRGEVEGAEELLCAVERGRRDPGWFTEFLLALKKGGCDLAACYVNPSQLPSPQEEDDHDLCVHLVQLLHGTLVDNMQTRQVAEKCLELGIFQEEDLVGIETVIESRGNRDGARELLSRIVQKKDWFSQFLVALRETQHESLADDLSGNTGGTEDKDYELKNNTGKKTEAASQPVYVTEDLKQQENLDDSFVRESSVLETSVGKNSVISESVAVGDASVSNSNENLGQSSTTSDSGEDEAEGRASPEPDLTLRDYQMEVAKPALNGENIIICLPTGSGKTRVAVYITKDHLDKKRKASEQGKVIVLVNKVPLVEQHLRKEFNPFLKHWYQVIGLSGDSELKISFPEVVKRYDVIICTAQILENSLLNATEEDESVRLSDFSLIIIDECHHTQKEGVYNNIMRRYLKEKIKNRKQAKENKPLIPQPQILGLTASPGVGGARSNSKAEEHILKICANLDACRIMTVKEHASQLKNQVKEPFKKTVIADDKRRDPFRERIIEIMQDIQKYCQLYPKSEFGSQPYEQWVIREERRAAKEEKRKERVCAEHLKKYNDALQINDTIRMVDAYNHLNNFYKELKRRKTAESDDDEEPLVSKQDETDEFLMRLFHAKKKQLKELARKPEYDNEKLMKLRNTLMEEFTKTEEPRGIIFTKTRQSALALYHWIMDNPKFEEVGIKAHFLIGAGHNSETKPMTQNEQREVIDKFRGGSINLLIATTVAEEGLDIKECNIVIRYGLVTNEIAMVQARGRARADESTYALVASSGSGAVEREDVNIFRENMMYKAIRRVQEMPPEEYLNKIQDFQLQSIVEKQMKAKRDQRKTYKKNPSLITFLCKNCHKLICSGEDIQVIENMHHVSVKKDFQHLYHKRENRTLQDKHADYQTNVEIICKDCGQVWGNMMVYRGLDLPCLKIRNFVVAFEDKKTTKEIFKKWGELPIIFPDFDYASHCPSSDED
The test is described as follows: co-IP; DF1 cell lysates immunoprecipitated with rabbit pAb against chMDA5, western blotting with antibodies against the endogenous proteins (Supplementary Figure S2).

As to “Flag-tagged chicken HSP70 (from UniProt P08106 1-634)”, the binding entry in the test with HA-chMDA5-N (chicken) is recorded as “binds”. On to “Flag-tagged chicken HSPA8 (from UniProt O73885 1-646)”, for which the binding entry with HA-chMDA5-N (chicken) was “binds”. Regarding “chicken HSP70 (from UniProt P08106 1-634)”, in test [1], the binding result is reported as “binds”. In the case of “chicken HSPA8 (from UniProt O73885 1-646)”, in test [1], the binding entry is “binds”.

B1: Flag-tagged chicken PRDX1 (protein, UniProt P0CB50 1-199)
chain: MSSGKAFIGKPAPDFTATAVMPDGQFKDIKLSDYRGKYVVFFFYPLDFTFVCPTEIIAYSDRADEFKKINCEIIGASVDSHFCHLAWINTPKKQGGLGTMKIPLVSDTKRVIAKDYGVLKEDEGIAYRGLFIIDEKGILRQITINDLPVGRSVDETLRLVQAFQFTDKHGEVCPAGWKPGSDTIKPDVQKSKEYFSKQK
Regarding B1, the binding result in the test with HA-chMDA5-N (chicken) is recorded as “binds”.

B2: chicken PRDX1 (protein, UniProt P0CB50 1-199)
chain: MSSGKAFIGKPAPDFTATAVMPDGQFKDIKLSDYRGKYVVFFFYPLDFTFVCPTEIIAYSDRADEFKKINCEIIGASVDSHFCHLAWINTPKKQGGLGTMKIPLVSDTKRVIAKDYGVLKEDEGIAYRGLFIIDEKGILRQITINDLPVGRSVDETLRLVQAFQFTDKHGEVCPAGWKPGSDTIKPDVQKSKEYFSKQK
Regarding B2, the binding entry in test [1] is on record as “binds”.
